Results deposited as PubChem BioAssay AID1259254 (NCATS, 2017)
In all, the deposit lists about 59,000 reagents; below is an unselected part. In the full data, about 1,550 (2.6%) were called active. 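G2 share is only a proxy for re-replication; each gene was hit by three separate siRNAs, and active genes were retested.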 A number with no mark means an inactive call. Reagents against one gene are numbered here. Not all columns of the deposit are shown. No sequences are given here. Not stated in the record: the amount of reagent.

Screen: 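Genome-wide screen for genes that prevent DNA re-replication in cancer cells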 (primary screen)
System: human HCT116 colorectal cancer cells
Knock-down reagent: single siRNA against human genes
Timing: 3 days
Detection: 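Imaged Hoechst DNA stain sorts each cell into a cycle phase by DNA amount; per plate, G2 fraction set to 0% for non-targeting and 100% for GMNN siRNA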
Reading the numbers: G2 robust z-score: higher = more G2 cells, more excess DNA replication
Active means: 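An siRNA counts as active if its G2 robust z-score lies at least 5 MADs above the screen median; here such calls match roughly 38% of GMNN control or more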

G2 robust z-score, by gene and reagent
CST11 (cystatin 11): #1 -0.345; #2 0.331; #3 1.41
SBNO2 (strawberry notch homolog 2): #1 -0.62; #2 1.27; #3 -0.357
MIR2052HG (MIR2052 host gene): #1 0.266; #2 0.552; #3 2.51
HOXA10 (homeobox A10): #1 -0.44; #2 -0.846; #3 -1.3
PLCB4 (phospholipase C beta 4): #1 -1.18; #2 -0.246; #3 2.06
CYP4B1 (cytochrome P450 family 4 subfamily B member 1): #1 0.0234; #2 0.478; #3 2.37
HAGH (hydroxyacylglutathione hydrolase): #1 1.74; #2 3.57; #3 3.01
OR6N2 (olfactory receptor family 6 subfamily N member 2): #1 1.24; #2 -0.769; #3 -0.0431
TUBG1 (tubulin gamma 1): #1 0.0806; #2 2.08; #3 5.42 (active)
GJB7 (gap junction protein beta 7): #1 -0.548; #2 -0.97; #3 -0.0985; #4 -0.103; #5 -0.564; #6 -0.721
ZNF197 (zinc finger protein 197): #1 -0.981; #2 -0.939; #3 -0.342
KIF19 (kinesin family member 19): #1 -0.651; #2 -0.0397; #3 1.54
ZNF205 (zinc finger protein 205): #1 -0.411; #2 0.743; #3 0.261
TMEM237 (transmembrane protein 237): #1 0.187; #2 0.457; #3 -1.06
NLRP10 (NLR family pyrin domain containing 10): #1 -0.908; #2 3.75; #3 0.28
TAF9B (TATA-box binding protein associated factor 9b): #1 -0.45; #2 0.748; #3 -0.47
ALDH8A1 (aldehyde dehydrogenase 8 family member A1): #1 0.49; #2 0.269; #3 2.13
PLAC8 (placenta associated 8): #1 -0.824; #2 0.0628; #3 0.324
NOL3 (nucleolar protein 3): #1 -0.596; #2 -0.292; #3 2.91
UBA52 (ubiquitin A-52 residue ribosomal protein fusion product 1): #1 2.9; #2 3.29; #3 1.46
PSMD12 (proteasome 26S subunit, non-ATPase 12): #1 2.21; #2 0.453; #3 0.396
FCN2 (ficolin 2): #1 1.42; #2 0.604; #3 1.6

Entries listed so far whose target name starts with N or n (6):
G2 robust z-score, by gene and reagent
NLRP10 (NLR family pyrin domain containing 10): #1 -0.908; #2 3.75; #3 0.28
NOL3 (nucleolar protein 3): #1 -0.596; #2 -0.292; #3 2.91
